The numbers were not newly measured in publication PMC6052858 (Die Pharmazie, 2009), which cites them from elsewhere.

For this data set the following is noted: cited from earlier work; for Cmax: ref Dresser et al. (2002).
Where [1] appears, read: administered along with GFJ, ref Dresser et al. 2002.

Read-outs that look alike come from different tables or passages of the source.

On to `CC(C)(C(=O)O)c1ccc(C(O)CCCN2CCC(C(O)(c3ccccc3)c3ccccc3)CC2)cc1` (stereo not shown) [fexofenadine], for which, under setting [1], the “AUC with GFJ, % of control (decreased to)” value is 30% and the “Cmax with GFJ, % of control (decreased to)” value is reported as 40%. Under “with GFJ”, the Cmax (commonly the highest concentration seen after dosing) was 110 µg/mL. Also, the Cmax (without GFJ) was 288 µg/mL.
